Laboratory results as given in article PMC11234457.
For at least one entry, the source does not settle the construct or the ends of the probe. For some assays here: Where cells or extracts were used, other partners may take part. For some assays here: Negatives hold for the conditions tested. For some assays here: At least one verdict rests on a figure or table, not on a statement of the authors.

The chains behind the UniProt entries cited, without tags or fusion partners. Residues count along the entry.
UniProt P01106, 16-454: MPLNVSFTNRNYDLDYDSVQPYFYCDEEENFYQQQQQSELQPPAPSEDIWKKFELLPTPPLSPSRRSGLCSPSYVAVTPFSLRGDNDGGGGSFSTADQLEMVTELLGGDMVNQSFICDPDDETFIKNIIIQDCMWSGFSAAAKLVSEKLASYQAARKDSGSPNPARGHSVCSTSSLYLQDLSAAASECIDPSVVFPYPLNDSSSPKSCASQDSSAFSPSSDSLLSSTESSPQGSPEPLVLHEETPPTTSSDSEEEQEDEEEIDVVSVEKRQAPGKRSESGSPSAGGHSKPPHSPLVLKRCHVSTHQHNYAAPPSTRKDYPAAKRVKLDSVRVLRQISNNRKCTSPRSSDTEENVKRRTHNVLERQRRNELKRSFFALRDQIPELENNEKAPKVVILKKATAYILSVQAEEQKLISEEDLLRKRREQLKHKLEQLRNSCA

Legend:
c-Myc (Homo sapiens) [1] = biological target: c-Myc (Homo sapiens) (UniProt P01106); experiment: BLI; details: value order taken from MA9, MA9C1, "immobilized c-Myc" per legend, commercial protein
[2] = system: c-Myc in overexpressing cell lysate; experiment: streptavidin pull-down; details: 5' biotin directly on MA9C1 (thought to impair binding); protein in a lysate after overexpression; label: 5' biotin, FAM, cy3; folded or branched DNA
His-c-Myc [3] = biological target: His-c-Myc (UniProt P01106); experiment: flow cytometry of Ni-beads; details: 200 nM FAM-aptamer, recombinant protein, protein details: His
c-Myc (Homo sapiens) [4] = biological target: c-Myc (Homo sapiens) (UniProt P01106); experiment: competition ELISA; details: commercial protein, folded or branched DNA
[5] = biological target: endogenous c-Myc in HCT116 total protein (UniProt P01106); experiment: streptavidin pull-down, LC-MS; details: protein in an extract, label: 5' biotin (ELISA, pull-down), FAM (flow), single-stranded DNA
His-c-Myc [6] = biological target: His-c-Myc (UniProt P01106); experiment: flow cytometry; details: 200 nM ProMyc; 5' NH2-C6 linked to pomalidomide-PEG4; recombinant protein; protein details: His; folded or branched DNA
[7] = label: 5' biotin, FAM, cy3, folded or branched DNA
[8] = vs biotin-MA9C1, 200 nM, no significant difference among linkers, 5' NH2-C6 linked to pomalidomide-PEG4
[9] = label: 5' biotin (ELISA, pull-down), FAM (flow), single-stranded DNA

CGTTACTTCTGTTCGTTCTCATGGCGAACCCTGTATGGCGCGTAAGTCGGGGAGTAACG [MA9C1]
Kd (c-Myc (Homo sapiens) [1]; [7]): 29.9 nM
binding result [2]: no binding
binding result (His-c-Myc [3]; [7]): binds

AAAAAAAAAAAAAAACGTTACTTCTGTTCGTTCTCATGGCGAACCCTGTATGGCGCGTAAGTCGGGGAGTAACGAAAAA [ProMyc-L15]
binding result (c-Myc (Homo sapiens) [4]; [8]): binds

AAAAACGTTACTTCTGTTCGTTCTCATGGCGAACCCTGTATGGCGCGTAAGTCGGGGAGTAACG [ProMyc-L5]
binding result (c-Myc (Homo sapiens) [4]; [8]): binds

CGTTACTTCTGTTCGTTCTCATGGCGAACCCTGTATGGCGCGTAAGTCGGGGAGTAACGTCTGCCTAGTTCCTTGTCTGATCTCCA [MA9]
Kd (c-Myc (Homo sapiens) [1]; [9]): 27.4 nM
binding result (His-c-Myc [3]; [9]): binds
binding result [5]: binds

AAACGTTACTTCTGTTCGTTCTCATGGCGAACCCTGTATGGCGCGTAAGTCGGGGAGTAACGTAAAAAGAGCAACGCAGCAGGGGGCGTGAGGGCGGGAGCGGGGCGGCGGTGCTCAAAA [circPA1-ProMyc]
binding result (c-Myc (Homo sapiens) [4]; 100 nM oligonucleotide, consistent with MA9C1, circular, A5 linker phosphorothioate, NH2-T (red T) linked to pomalidomide): binds

AAAAAAAAAACGTTACTTCTGTTCGTTCTCATGGCGAACCCTGTATGGCGCGTAAGTCGGGGAGTAACG [ProMyc-L10]
binding result (c-Myc (Homo sapiens) [4]; [8]): binds

CGTTACTTCTGTTCGTTCTCATGGCGAACCCTGTATGGCGCGTAAGTCGGGGAGTAACG [ProMyc]
binding result (His-c-Myc [6]): binds
